What follows is the remainder of the data, with few or none of the targets with a hit. This is a noisy data set. Only a part is listed here, and it is no random draw.

The chains behind the UniProt entries cited, without tags or fusion partners. Where a name states a change or a piece, a line headed by the entry shows the natural chain unless it says otherwise.
UniProt O00401, whole entry: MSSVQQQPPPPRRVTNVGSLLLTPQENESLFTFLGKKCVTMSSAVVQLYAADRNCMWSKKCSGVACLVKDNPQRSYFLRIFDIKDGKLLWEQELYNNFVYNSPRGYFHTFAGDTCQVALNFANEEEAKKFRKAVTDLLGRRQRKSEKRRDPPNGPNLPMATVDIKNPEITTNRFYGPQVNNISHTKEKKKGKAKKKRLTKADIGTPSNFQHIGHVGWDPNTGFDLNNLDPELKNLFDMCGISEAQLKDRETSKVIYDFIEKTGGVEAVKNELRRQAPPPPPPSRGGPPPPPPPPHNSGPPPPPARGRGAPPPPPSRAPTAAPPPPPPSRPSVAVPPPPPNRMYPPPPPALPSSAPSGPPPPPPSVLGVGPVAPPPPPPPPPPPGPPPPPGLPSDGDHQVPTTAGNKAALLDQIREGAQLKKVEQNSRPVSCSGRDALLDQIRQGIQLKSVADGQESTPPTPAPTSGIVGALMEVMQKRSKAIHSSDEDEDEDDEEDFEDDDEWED
UniProt O00244: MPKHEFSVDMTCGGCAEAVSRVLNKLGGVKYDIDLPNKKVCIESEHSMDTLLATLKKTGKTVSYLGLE
UniProt O00411: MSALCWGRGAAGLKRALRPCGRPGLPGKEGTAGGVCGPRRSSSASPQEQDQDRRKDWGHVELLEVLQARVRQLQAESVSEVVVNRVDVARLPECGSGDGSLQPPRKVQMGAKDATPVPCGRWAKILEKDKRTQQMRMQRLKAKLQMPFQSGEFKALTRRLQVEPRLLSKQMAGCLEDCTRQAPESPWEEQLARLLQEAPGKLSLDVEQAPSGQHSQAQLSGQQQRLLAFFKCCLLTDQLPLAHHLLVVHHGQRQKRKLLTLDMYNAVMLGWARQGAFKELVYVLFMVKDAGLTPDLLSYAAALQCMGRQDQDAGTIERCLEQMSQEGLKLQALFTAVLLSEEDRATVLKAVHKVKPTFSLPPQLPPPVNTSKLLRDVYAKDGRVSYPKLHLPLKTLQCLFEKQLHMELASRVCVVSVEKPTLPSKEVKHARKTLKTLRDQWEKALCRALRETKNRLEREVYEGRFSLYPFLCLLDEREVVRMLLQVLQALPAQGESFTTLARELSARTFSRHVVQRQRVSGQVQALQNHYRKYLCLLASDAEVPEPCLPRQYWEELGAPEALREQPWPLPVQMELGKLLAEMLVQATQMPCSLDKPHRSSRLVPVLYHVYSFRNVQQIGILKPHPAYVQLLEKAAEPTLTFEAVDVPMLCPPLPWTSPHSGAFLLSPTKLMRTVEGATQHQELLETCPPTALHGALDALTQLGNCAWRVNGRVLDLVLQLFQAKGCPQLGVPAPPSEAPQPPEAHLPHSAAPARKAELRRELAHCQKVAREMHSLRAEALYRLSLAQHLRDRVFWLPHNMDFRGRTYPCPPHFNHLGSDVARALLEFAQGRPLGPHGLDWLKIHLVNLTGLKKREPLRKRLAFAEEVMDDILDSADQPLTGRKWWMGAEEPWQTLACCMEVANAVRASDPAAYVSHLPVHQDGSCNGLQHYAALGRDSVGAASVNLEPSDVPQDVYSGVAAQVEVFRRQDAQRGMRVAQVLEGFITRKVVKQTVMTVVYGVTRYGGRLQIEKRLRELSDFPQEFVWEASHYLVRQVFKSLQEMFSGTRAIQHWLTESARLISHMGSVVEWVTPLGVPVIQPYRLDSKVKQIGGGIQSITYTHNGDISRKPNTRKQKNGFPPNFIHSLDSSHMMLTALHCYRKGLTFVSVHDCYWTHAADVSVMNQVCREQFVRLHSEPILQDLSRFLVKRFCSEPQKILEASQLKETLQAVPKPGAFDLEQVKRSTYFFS
UniProt O14617: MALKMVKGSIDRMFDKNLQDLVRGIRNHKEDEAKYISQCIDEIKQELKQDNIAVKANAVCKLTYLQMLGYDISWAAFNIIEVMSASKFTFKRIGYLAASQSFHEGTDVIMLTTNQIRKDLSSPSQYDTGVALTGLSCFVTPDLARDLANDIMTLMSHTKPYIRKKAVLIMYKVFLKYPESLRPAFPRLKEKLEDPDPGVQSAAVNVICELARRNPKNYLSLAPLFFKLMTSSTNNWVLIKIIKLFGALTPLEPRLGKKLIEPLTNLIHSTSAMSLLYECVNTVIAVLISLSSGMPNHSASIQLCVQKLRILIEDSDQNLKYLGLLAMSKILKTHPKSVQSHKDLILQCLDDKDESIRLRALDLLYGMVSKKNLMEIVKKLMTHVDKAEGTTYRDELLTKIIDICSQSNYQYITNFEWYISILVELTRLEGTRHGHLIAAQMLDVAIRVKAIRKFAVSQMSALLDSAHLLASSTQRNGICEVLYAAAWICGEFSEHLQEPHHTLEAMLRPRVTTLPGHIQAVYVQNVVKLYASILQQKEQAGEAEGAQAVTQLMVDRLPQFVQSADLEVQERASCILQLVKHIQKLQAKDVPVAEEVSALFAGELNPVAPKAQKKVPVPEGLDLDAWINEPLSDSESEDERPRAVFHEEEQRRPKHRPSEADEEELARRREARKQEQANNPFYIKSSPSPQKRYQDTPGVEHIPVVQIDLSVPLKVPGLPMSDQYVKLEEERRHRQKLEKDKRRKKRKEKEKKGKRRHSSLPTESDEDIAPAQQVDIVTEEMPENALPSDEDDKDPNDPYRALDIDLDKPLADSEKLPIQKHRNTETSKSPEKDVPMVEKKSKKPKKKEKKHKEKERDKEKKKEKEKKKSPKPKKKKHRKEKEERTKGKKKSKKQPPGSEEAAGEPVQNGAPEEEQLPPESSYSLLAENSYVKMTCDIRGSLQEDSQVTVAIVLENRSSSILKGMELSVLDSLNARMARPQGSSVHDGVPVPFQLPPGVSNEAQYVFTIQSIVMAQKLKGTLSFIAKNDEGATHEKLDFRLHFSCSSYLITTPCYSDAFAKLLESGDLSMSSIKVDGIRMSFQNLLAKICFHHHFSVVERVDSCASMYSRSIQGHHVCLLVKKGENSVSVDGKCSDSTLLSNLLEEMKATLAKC
UniProt O15014: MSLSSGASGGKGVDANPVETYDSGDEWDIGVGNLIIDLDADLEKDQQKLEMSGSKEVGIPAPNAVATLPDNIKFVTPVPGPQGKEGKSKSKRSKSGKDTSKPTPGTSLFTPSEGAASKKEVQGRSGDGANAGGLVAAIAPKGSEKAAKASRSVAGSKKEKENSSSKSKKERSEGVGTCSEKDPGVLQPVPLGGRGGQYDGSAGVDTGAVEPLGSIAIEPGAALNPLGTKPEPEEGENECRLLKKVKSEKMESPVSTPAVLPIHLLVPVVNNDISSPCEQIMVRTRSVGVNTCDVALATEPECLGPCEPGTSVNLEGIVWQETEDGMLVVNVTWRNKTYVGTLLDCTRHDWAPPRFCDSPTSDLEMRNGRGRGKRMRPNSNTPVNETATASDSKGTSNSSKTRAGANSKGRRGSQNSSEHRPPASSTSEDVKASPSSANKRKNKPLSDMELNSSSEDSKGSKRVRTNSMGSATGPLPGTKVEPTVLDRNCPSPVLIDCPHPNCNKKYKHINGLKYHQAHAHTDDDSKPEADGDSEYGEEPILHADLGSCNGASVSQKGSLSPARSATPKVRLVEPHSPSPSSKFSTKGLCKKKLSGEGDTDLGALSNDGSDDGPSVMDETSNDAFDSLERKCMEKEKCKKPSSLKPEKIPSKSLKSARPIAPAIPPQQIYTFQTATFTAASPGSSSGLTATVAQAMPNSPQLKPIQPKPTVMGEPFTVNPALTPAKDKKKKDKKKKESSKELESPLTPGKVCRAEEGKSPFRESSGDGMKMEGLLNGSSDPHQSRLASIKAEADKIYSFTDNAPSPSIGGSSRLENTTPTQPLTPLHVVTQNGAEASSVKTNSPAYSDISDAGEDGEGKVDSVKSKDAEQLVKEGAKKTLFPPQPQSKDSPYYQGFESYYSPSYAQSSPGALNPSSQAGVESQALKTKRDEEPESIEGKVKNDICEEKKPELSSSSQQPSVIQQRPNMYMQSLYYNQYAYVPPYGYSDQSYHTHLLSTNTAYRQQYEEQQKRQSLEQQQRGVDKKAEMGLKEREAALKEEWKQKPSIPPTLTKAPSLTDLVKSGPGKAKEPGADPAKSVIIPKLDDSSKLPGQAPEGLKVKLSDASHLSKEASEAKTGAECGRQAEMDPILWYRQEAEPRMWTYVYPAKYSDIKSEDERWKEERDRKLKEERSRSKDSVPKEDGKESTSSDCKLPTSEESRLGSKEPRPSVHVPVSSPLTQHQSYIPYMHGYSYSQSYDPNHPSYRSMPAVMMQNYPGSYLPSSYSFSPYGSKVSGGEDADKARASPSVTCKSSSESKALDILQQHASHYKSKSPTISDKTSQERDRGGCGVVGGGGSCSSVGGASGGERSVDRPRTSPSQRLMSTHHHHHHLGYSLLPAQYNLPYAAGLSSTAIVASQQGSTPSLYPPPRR
UniProt O14744, whole entry, looked up: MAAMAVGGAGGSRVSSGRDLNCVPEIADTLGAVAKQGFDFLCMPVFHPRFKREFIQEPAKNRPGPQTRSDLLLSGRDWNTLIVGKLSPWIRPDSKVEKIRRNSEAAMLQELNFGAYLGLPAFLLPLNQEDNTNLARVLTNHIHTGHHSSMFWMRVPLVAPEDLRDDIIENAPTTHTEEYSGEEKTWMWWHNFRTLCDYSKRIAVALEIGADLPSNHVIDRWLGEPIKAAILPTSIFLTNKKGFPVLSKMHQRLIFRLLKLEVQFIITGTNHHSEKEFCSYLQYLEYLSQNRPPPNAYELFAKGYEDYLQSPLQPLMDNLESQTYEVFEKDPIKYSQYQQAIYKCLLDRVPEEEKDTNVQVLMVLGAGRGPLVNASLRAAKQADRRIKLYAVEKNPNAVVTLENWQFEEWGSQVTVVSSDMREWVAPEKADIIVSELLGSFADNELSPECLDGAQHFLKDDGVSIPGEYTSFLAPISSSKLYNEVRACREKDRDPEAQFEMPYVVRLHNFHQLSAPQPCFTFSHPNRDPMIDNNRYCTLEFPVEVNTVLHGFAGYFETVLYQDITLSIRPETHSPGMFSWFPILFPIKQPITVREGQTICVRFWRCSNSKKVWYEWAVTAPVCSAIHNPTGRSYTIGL
UniProt O00192: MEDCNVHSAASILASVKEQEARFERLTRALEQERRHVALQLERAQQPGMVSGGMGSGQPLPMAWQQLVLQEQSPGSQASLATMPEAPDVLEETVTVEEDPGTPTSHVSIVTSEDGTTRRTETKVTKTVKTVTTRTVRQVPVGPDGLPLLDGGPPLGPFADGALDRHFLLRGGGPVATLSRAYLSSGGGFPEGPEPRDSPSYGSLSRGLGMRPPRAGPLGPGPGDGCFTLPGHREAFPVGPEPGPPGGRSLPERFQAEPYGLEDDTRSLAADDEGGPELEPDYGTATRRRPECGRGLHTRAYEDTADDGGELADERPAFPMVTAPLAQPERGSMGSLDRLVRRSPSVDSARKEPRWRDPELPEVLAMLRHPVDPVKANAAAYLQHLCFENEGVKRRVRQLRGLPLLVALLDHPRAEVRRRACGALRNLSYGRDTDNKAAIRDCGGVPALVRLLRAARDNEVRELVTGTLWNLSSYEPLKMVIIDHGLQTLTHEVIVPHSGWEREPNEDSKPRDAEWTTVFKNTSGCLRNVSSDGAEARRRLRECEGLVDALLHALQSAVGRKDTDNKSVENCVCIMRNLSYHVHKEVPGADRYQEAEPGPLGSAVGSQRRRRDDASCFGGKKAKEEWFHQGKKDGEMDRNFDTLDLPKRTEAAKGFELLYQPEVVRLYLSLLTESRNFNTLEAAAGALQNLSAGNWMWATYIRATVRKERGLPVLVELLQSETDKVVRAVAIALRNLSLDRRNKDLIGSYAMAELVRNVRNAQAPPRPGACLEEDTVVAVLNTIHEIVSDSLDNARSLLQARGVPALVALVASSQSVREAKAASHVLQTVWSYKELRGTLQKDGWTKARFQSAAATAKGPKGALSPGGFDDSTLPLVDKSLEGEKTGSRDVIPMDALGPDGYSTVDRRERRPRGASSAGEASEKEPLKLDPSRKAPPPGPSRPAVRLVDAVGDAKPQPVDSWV
UniProt O00425, whole entry, looked up: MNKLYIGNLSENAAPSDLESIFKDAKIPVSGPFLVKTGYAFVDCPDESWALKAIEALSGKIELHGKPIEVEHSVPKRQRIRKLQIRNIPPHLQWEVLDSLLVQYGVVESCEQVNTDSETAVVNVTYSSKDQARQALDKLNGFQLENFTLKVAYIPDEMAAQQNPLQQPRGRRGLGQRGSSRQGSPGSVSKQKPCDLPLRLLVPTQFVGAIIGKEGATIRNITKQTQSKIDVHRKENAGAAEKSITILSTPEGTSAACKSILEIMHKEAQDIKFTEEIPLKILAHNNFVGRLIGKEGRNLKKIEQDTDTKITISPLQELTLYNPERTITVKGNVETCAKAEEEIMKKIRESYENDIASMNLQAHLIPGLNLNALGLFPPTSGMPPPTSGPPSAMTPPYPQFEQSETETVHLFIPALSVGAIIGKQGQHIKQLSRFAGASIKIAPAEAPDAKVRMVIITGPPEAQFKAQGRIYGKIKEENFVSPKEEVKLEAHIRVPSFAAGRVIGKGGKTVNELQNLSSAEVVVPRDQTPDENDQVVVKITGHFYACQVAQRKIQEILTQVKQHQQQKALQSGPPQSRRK

Compound in the test: COC(=O)/C=C/c1ccccc1 [methyl cinnamate]
Briefly: log2 ratio of iodoacetamide-alkyne labeling of the cysteine site, DMSO over compound (competition); higher = stronger covalent engagement of the cysteine by the compound, active = 1 or more. The conditions noted are these: 500 µM; treatment time 1 h; system: HEK293T cell lysate. The method in brief: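 HEK293T lysate at 2 mg/mL was treated with vehicle or electrophile (500 µM) for 1 h at ambient temperature, then labelled with iodoacetamide alkyne (1 h), clicked to sCIP-TMT reagents, pooled, digested with trypsin overnight at 37 °C, enriched on streptavidin and eluted with acid. Peptides were analysed by Orbitrap Eclipse LC-MS/MS with FAIMS and quantified in FragPipe, using duplicate channels and three replicates, with cysteines quantified in only one replicate excluded. The log2 competition ratio for each cysteine is the mean control-channel reporter intensity divided by the mean compound-channel reporter intensity.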
UniProt O14757_C168: the “log2 ratio of iodoacetamide-alkyne labeling” value (shortened to “log2 ratio”) is inactive: 0.331.

With EI24 C24 (UniProt O14681), the “log2 ratio” value was inactive: 0.249. The value for PPM1G C13 (UniProt O15355) was inactive: 0.246; that for WASL C431 (UniProt O00401) was inactive: 0.627; that for PHGDH C18 (UniProt O43175) was inactive: 0.145. Under ATOX1 C12 (UniProt O00244) stands inactive: 0.458; under GTPBP1 C669 (UniProt O00178), inactive: 0.467. As for SMCHD1 C897 (UniProt A6NHR9), the “log2 ratio” value is inactive: 0.368.

With PSMD12 C255 (UniProt O00232), the “log2 ratio” value is inactive: -0.167. Under POLRMT C119 (UniProt O00411) stands inactive: 0.27; under CIT C402 (UniProt O14578), inactive: 0.581; under TXNDC9 C94 (UniProt O14530), inactive: 0.214.

Consider IRS4 C545 (UniProt O14654), for which the “log2 ratio” value is inactive: 0.341. PFAS C1338 (UniProt O15067): the “log2 ratio” value was inactive: 0.0402.

As for POLRMT C765 (UniProt O00411), the “log2 ratio” value is inactive: 0.219. The value for AP3D1 C137 (UniProt O14617) was inactive: 0.0312; that for ARID1A C1874 (UniProt O14497) was inactive: 0.182. Under NVL C391 (UniProt O15381) stands inactive: -0.116. The value for ZNF609 C178 (UniProt O15014) was inactive: 0.0569. Consider KDM6A C960 (UniProt O15550), for which the “log2 ratio” value was inactive: -0.149. Under PRMT5 C22 (UniProt O14744) stands inactive: 0.307; under TRIM24 C81 (UniProt O15164), inactive: 0.00813; under KIF2A C406 (UniProt O00139), inactive: 0.0558. Under PHGDH C254 (UniProt O43175) stands inactive: 0.0288; under ZZEF1 C69 (UniProt O43149), inactive: -0.0756. Under NDC80 C449 (UniProt O14777) stands inactive: -0.116; under SPTBN2 C2043 (UniProt O15020), inactive: 0.0632; under ARVCF C770 (UniProt O00192), inactive: -0.0993. Take IGF2BP3 C546 (UniProt O00425): the “log2 ratio” value was inactive: 0.0958. Regarding IPO5 C229 (UniProt O00410), the “log2 ratio” value was inactive: -0.125. Under UniProt O14733_C360 stands inactive: -0.061; under KDM6A C384 (UniProt O15550), inactive: 0.228. For XPO1 C327 (UniProt O14980), the “log2 ratio” value is inactive: -0.0497.

For CLIC1 C24 (UniProt O00299), the “log2 ratio” value was inactive: 0.151. Under POLRMT C650 (UniProt O00411) stands inactive: -0.0644; under DNM1L C431 (UniProt O00429), inactive: 0.33.

With XPO1 C34 (UniProt O14980), the “log2 ratio” value was inactive: 0.0581.

For the origin of these results see the supplement of paper PMC11006884.
